This note sets out measurements from article PMC4320627, “Transcription factor MrpC binds to promoter regions of hundreds of developmentally-regulated genes in Myxococcus xanthus”.

Series [1] has as its target T1, His10-MrpC2 (Myxococcus xanthus) (UniProt Q1D244).
T1 sequence (looked up, limits assumed): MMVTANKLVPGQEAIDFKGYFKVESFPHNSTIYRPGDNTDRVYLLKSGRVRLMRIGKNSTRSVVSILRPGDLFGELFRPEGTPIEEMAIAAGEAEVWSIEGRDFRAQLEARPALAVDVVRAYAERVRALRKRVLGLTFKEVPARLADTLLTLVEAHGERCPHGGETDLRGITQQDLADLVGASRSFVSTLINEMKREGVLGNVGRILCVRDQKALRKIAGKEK
As to the kind of experiment: EMSA. Conditions: 2 nM 32P-labeled DNA, 25 C, 15 min, recombinant protein, protein details: N-terminal His10, label: 32P. A general note: A gel shift assay detects complexes by their altered migration in electrophoresis.

In the next series the test system is His10-MrpC2 + FruA-His6. As to the kind of experiment: EMSA. The settings on record: cooperative, 2 nM 32P-labeled DNA, 25 C, 15 min, recombinant protein, protein details: N-terminal His10,C-terminal His6, label: 32P, probe letters rebuilt from the primers and the genome.
[2] abbreviates: 1 uM protein, probe letters rebuilt from the primers and the genome.

Construct, isoform or probe ends are uncertain for at least one entry. For some of these results: At least one verdict rests on a figure or table, not on a statement of the authors. For some of these results: Where a protein sequence is shown, tags need not be part of it.

Regarding “CGAGCTCCTGTGAACCGAAGTCATGCTGCTGGTAGGAGCCCGCTGGGTCTGCCCAGACCTCGCCAATGAGGCGCTGGTCCATTAATTGCTCAACGCAACAACTTGCGAAGCAGTCTGTCGGCTACTTGACCGTGCTTGCCAGTGAATGAGAAGTGACGCCTGCGTGCTGACCGTAATGGGACAGGCGGGGACCATGTATATGAGGTGGAAGAAGC (double strand) [MXAN_5802 PCR]”, the binding result was “binds” in series [1] (1 uM, 3 complexes, probe letters rebuilt from the primers and the genome); “binds” with His10-MrpC2 + FruA-His6.

“GTTCATCGGGTCTGTCACATAGGCGACACCCTGCTCCGC (double strand) [MXAN_4360 oligo]”: the binding result in series [1] (1 uM protein) is reported as “binds”. As to “GGATTTGCCTTTGCACCTCCAGAACCACCAGTGGGTGAAACAATGTCAACGGGAGTCCTTCGCCACGGCCTTGATTGTCCCTTAGCAAACACAGTGAACCGCACAGCGACAAGGCAGGAATTCGCCCACGCTGGACTCACGGCACGTCGGAAGCATCTCTTGGGAATCAAGAATTGAGTGAGGTCCATCGCCCTGCAATCGATGGCAAAGAG (double strand) [pkn8 PCR]”, the binding result in series [1] (1 uM, one protein bound, probe letters rebuilt from the primers and the genome) is given as “binds”; in the series on His10-MrpC2 + FruA-His6, “binds”. For the sequence “CAAGGTGATGATGTGCGTCGAGGCTATCGGCCATGTGCGGGAGCGTCAATGTTCGGACCGGGCGGAATTCCGGCTGCCCGGGGAGCGGGCAAGCGCCGTCACACAGCCGACGTTTCCGTCACTGAGGGTACGTCGGGTACGTCACTGGCTCGACGGAGATGGGCGGCCAGGAGTGCGGCGTGCGCGGCGCGGGCGGGAGCGAATACAGCGGCTCG (double strand) [frzS PCR]”, the binding result (in series [1] (setting [2]); in the series with His10-MrpC2 + FruA-His6) was “binds” throughout. Consider “GTACCAACTCGCGCACGTCGGGTGCGGGCAGTCCGTAGCGCTGGCCGTTCAGGGTGAACAGCAGCACCTCCGTGGGTGCGGGGGTCATGTCCTGGGACATAAGACGTGGGCGTGGCCACTGTCGAACATTGATGTCGGCCCGCGGTCGCGGTGTCCACCAGTCCTCAGTGGAGGCAGGAGGAGGGGCCCATGGTTCGGGGGGAACACGACAGGTGCTCGCTGTGC (double strand) [cheW6a PCR]”, for which the binding result (in series [1] (setting [2]); in the series with His10-MrpC2 + FruA-His6) was “binds” each time. Turning to “GCGGTTCACTGTGTTTGCTAAGGGACAATCAAGGCCGTG (double strand) [pkn8 (MXAN_1710) oligo]”, the binding result in series [1] (1 uM protein) was “binds”. Turning to “GGCGAACGGGACTTTCCTTCTCCAAGGTTCGTGCCAGCGGGAATTGAAATGCCGCCGGGACAACACCTCCTGAAATGCCGGGTACTTAGCGCTACAGGCCCGCACCAGAGCCCGTTCTGTGTCCAAAACCTGAAACAGAACGTTCAAACAGTCTGATCAATTTGAACGAAACGTTCAAACCGGGGGCATGAGTGTCGGAGCAG (double strand) [mrpC upstream PCR]”, the binding result in series [1] (0.5-1 uM protein, multiple complexes, probe letters rebuilt from the primers and the genome) was “binds”; with His10-MrpC2 + FruA-His6 it was “binds”. For “GTGGGCATCCACGAAGCGCGCCCCGGACTGGTGCGCCCCCTGCTGTCGTGCACGCGGGAGGAGGTGGTGGCCTTCCTGGCGGAGCAGGGTGTCGCCTATGTGACAGACCCGATGAACACCGACCCTGTCCACTTCCGGACGCGCGTTCGCCTTGGAGTGCTACCCGCCCTGTCGCGCGCCGCTGGCTTCGCGGTGGAGG (double strand) [MXAN_4360 PCR]”, the binding result (in series [1] (setting [2]); with His10-MrpC2 + FruA-His6) was “binds” in each case. In the case of “CCAGGGAACGTAGAAGTCTGGCAGTTCGAATGGCTGCTTGTTTTTCGCCGTACTCATGGACGCCCCTCGTTGAACTCAGGGGGGCGTTATAGTTAGGCGCTGAACACTTATCCAAGTGTTTCTTGCATAAAAGATTCTCTGGAGAAGTCGCGATTTGCCTGCTGGCGCACGGATTTAGCTCCATCCGTGCGCCGTATTGCTC (double strand) [MXAN_6247 PCR]”, the binding result (in series [1] (setting [2]); in the series on His10-MrpC2 + FruA-His6) was “binds” in each case.

Take “AAACCTGGAAATGTTCACTGGTTGTCGAAGAGAAAAGGC (double strand) [bsgA (MXAN_3993) oligo]”: in series [1] (1 uM protein), the binding result was “binds”. Still for that read-out and setting: the result for “CACTTGGATAAGTGTTCAGCGCCTAACTATAACGCCCCC (double strand) [MXAN_6247 oligo]” reads “binds”. In the case of “CTCGTTTACGAACTCGTCTGGTCCAAGTACCTCGGGAATGTCCTGGGGAACAGCGGCCAGGCGCATGCCGTGGTGCTCGCCACGTTCATGGGAGGGCAAGCGCTGGGCGCATTTGTCTTCGGGCGGACAGCCGACCGGGCAAAGAACCCCCTGGCCCTTTACGGCCTGCTGGAGCTGGGCGTGGGCCTGTACGCGCTGGTCTTC (double strand) [mrpA PCR]”, the binding result (in series [1] (setting [2]); in the series with His10-MrpC2 + FruA-His6) was “binds” throughout. For the sequence “GTCTTCCTTGTTGATGAGCCCCGGAGGGGCCATCGCGGTGGGCATAGCGCTCGCAGCGGAGCCCTTCTTCTTCTCATCGGACATGAAATTCAGCCTTTTCTCTTCGACAACCAGTGAACATTTCCAGGTTTTCTGCGGCGGATGAACCAACGTAACAACCAAAACGGACATGGCAAACGCAGTGTGCGTTTTTCCGCCCCCCGTCACCTCTCCAGGGTTCCTCGGAAGTC (double strand) [bsgA PCR]”, the binding result in series [1] (1 uM, mainly one protein bound, probe letters rebuilt from the primers and the genome) is reported as “binds”; in the series with His10-MrpC2 + FruA-His6, “binds”.

For “GATTAGCACTACGCATGCCAACCCAGGTGCGCACTCCAAGCCCCCCAATTCTCAAGGCTTGGAACAATCCCCTCGGCGAGGATGGGTCCAGGGCTGACAAAATTCGGCAGTGACGCTGACGATAACTGTCGATCAGCCTACGCATCCGAAGCGCTCCCGGGCTCCAAGTCATCCGTCAGCCCATGCTTGGCCAACCGGTAGCGGAATGAACGGAACGAAAG (double strand) [pilA PCR]”, in series [1] (setting [2]), the binding result was “binds”. Turning to “GGCCGACATCAATGTTCGACAGTGGCCACGCCCACGTCT (double strand) [MXAN_6947 oligo]”, the binding result in series [1] (1 uM protein) is recorded as “binds”. The same measure, in the same setting: the entry for “CATCGCGGCTGTGTTCACTACGTGTCGGAGTATGAGTGG (double strand) [MXAN_4064 oligo]” is “binds”. Consider “CAGAGGCCCCTTGTCCACTCATCAACAGAGCAAGCCCCC (double strand) [MXAN_6500 oligo]”, for which, in series [1] (1 uM protein), the binding result is reported as “binds”. Same read-out and setting: the result for “GCGAAGCAGTCTGTCGGCTACTTGACCGTGCTTGCCAGT (double strand) [MXAN_5802 oligo]” reads “binds”. Still for that read-out and setting: the result for “GACGCCCGGGCGTGTCCGGCTCCGGACAGCGATGACGAA (double strand) [fruA (MXAN_3117) oligo]” reads “binds”.
